# In PubChem BioAssay (NCATS):
# The chains behind the UniProt entries cited, without tags or fusion partners.
# UniProt P08659, whole entry, looked up: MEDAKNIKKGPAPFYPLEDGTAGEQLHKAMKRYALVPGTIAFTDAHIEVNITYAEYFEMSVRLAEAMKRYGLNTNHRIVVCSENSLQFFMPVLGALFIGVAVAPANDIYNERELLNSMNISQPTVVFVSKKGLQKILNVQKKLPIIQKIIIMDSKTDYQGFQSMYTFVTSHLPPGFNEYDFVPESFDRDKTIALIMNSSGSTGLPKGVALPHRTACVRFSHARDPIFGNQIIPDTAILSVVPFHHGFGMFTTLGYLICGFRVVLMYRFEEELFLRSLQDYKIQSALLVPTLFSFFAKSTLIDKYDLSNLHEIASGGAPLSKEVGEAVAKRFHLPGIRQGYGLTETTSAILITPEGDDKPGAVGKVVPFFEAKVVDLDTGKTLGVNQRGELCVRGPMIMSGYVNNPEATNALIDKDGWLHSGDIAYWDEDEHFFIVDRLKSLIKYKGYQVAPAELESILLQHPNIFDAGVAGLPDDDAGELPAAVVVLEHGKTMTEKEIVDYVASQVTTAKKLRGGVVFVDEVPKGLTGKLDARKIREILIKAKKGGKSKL
# The inconclusive results got no clear call from the source; some entries with a clear call stand among them for comparison. Potencies of inconclusive entries are doubtful fits and often do not repeat. Active and inactive are the calls of the source. Calls follow the shape of the dose curve; as a rule, active = well fitted inhibition curve with a large enough effect; inconclusive = small, poorly fitted or top-dose-only effect, or another doubt; inactive = no such curve, though single readings can be large or run the other way.
# Target: Luciferin 4-monooxygenase (Photinus pyralis) (UniProt P08659)
# Test: Biochemical FLuc counterscreen for small molecule modulators of PMP22 gene expression (AID 1508640); as to activity, negative = inhibition: % of control where 0% means no effect
# Conditions: purified P. pyralis FLuc, luminescence, 10 min; series mostly up to 57.5 µM; activity, negative = inhibition: at the top concentration
# Description: Assay Provider: Jim Inglese Ph.D. National Center for Advancing Translational Science, National Institutes of Health, Rockville, MD CMT is a heterogeneous group of neurological disorders that affect approximately 1 in 2,500 people. In particular, the most common form of CMT, CMT1A is genetically linked to the duplication of the PMP22 gene which leads to Schwann cell overexpression, thus manifesting itself as a typical case of dose-sensitive diseases. To identify small molecule compounds that can mediate the expression of PMP22 we developed a phenotypic assay screening strategy by utilizing genome editing techniques to construct Schwann cell lines containing novel reporter technology to monitor the transcriptional or translational regulation of PMP22. For high sensitivity we use a bioluminescent reporter system embedded in the 3' UTR of the PMP22 gene (S16(c9) Pmp22-F2sN) to identify compounds that inhibit gene expression. […] We can further discriminate the effect of all transcriptionally active molecules on PMP22 translation or stability with an assay that incorporates a short NLuc peptide (HiBiT) at the C-terminus of expressed PMP22 (S16(f8) PMP22-HiBiT) allowing alpha complementation and luminescence detection of membrane-associated PMP22 protein. These assays were screened against the NCATS Sytravon Library Collection. Miniaturization of these assays to 1536-well plate format for quantitative high throughput screening (qHTS) yielded rich data sets immediately from the qHTS assay (S16(c9) Pmp22-F2sN), when compared with data from a cell viability assay (Cell TiterGlo) to identify compounds that decreased the output signals through cellular toxicity to streamline the selection process of actives for subsequent characterization using the HiBiT assay (S16(f8) PMP22-HiBiT).
# Biochemical FLuc assay PROTOCOL TABLE (format as described by Inglese J, Shamu CE and Guy RK. 2007) SEQUENCE No. (e.g., 1, 2, 3, etc.); PARAMETER (e.g., Cells, Incubation, Reagent, etc.); VALUE and DESCRIPTION. 1. Reagent. Add 3 uL substrate per well into Greiner 1536-well white/solid bottom high base, medium binding plates. 2. Compounds. Library compounds and controls added at 23nL per well, transferred by Pin Tool. 3. Incubation. Incubate plates 15 min at ambient temperature. 4. Reagent. Add 1uL FLuc enzyme solution per well of Greiner 1536-well plates. 5. Incubation. Incubate plates at room temperature for 10 min., protect from light. 6. Detector. FLuc luminescence measured using CCD-based camera (Viewlux). NOTES (numbers refer to Sequence numbers above; values are from representative experiments) 1. Dispense freshly prepared substrate (final concentration of 10 uM D-Luciferin, 10 mM Mg-Acetate, 50 mM Tris Acetate pH 7.6, 10 uM ATP, 0.01 % Tween-20, 0.05 % BSA) into 1,536-well Greiner white/solid bottom high base, medium binding plates. Protect from light. 4. Freshly prepared enzyme solution containing 10 nM P. pyralis in 50 mM Tris Acetate was filtered through a […] prior to dispensing. 6. Luminescence Read (Fluc): Clear filter; Exposure = 10 sec, Gain = High, Speed = Slow, Binning = 2X REFERENCES: 1. Inglese J, Shamu CE and Guy RK, Reporting data from high throughput screening of small molecule libraries, Nature Chemical Biology, 2007, 3(8): 438-441. doi.org/10.1038/nchembio0807-438 2. Yasgar A, Shinn P, Jadhav A, Auld DS, Michael S, Zheng W, Austin CP, Inglese J and Simeonov A, Compound Management for Quantitative High-Throughput Screening. J. Assoc. Lab. Auto., 2008, 13: 79-89. doi: 10.1016/j.jala.2007.12.004 3. […] Chemistry & Biology, 2012, 19: 1060-1072. doi.org/10.1016/j.chembiol.2012.07.015
SMILES,Potency,"activity, negative = inhibition"
O=C(NCCc1csc(-c2ccc(F)cc2)n1)c1c(F)cccc1Cl,"inconclusive: 27.3 µM [inhibitor, partial curve, poor fit]",–
O=C(NCc1ccccc1Cl)c1ccc(Nc2nc3ccccc3n3nnnc23)cc1,–,inactive: 2.25%
CCc1ccc(NC(=O)c2ccc3c(c2)c(C)c(C)n3Cc2ccccc2)cc1,"inconclusive: 21.7 µM [inhibitor, partial curve, poor fit]",–
CCOc1ccc(-n2nc3ccc(NC(=O)Cc4ccccc4)cc3n2)cc1,"inconclusive: 0.0015 µM [inhibitor, full curve]",–
COc1cccc(NC(=O)CSC2=Nc3ccccc3C3=NC(CC(=O)NC4CCCCC4)C(=O)N23)c1 (configuration not stated),–,inactive: -5.76%
CCOc1ccc(-c2nc(CSCC(=O)NCCc3ccccc3)c(C)o2)cc1,active: 19.3 µM,–
CC(=O)Nc1cccc(-c2nnc(SCC(=O)c3cc([N+](=O)[O-])ccc3Br)o2)c1,"inconclusive: 27.3 µM [inhibitor, partial curve, poor fit]",–
Cc1ccc(NC(=O)N(Cc2cn(C)c3ccccc23)C2CCCCC2)cc1C,"inconclusive: 10.9 µM [inhibitor, partial curve]",–
CCc1ccc(NC(=O)CN2CCSc3ccc(S(=O)(=O)N4CCCC4)cc32)cc1,"inconclusive: 27.3 µM [inhibitor, partial curve]",–
COc1c(Cl)cc(Cl)cc1/C=C(\C#N)c1nc2ccccc2[nH]1,–,inactive: 6.08%
CCN1CCN(CCCNC(=O)c2ccc3c(c2)sc2nc(-c4ccc(C)cc4)cn23)CC1,active: 6.85 µM,–
CCCCOc1ccc(CN2C(=O)C(=O)c3cc(Br)cc(C)c32)cc1OC,–,inactive: -19.2%
Oc1ccc(NCc2ccccc2OCc2ccccc2F)cc1,"inconclusive: 27.3 µM [inhibitor, partial curve]",–
O=S(=O)(c1ccc(Cl)cc1)c1nnn2c1nc(NC1CCCC1)c1sccc12,–,inactive: -5.21%
Cc1ccc(Nc2cc(C(=O)NC3CCCC3)c3ccccc3n2)cc1C,"inconclusive: 2.17 µM [inhibitor, full curve]",–
Cc1ccccc1S(=O)(=O)Cc1ccc(C(=O)NCc2ccccc2Cl)o1,"inconclusive: 34.3 µM [inhibitor, partial curve, poor fit]",–
CCOc1ccc(CCNC(=O)c2c(C)oc3ncn(CC(C)C)c(=O)c23)cc1,"inconclusive: 27.3 µM [inhibitor, partial curve]",–
COc1ccccc1Nc1nn2c(=O)c3ccc(C(=O)NCCC4=CCCCC4)cc3nc2s1,"inconclusive: 27.3 µM [inhibitor, partial curve]",–
COc1ccc(OC)c(CCNc2ncnc3onc(C)c23)c1,"inconclusive: 30.6 µM [inhibitor, partial curve, poor fit]",–

SMILES,Potency,"activity, negative = inhibition"
Cc1cc(C)cc(Nc2cc(C(=O)NCCCN(C)C3CCCCC3)c3ccccc3n2)c1,"inconclusive: 24.3 µM [inhibitor, partial curve]",–
Cc1ccccc1CNC(=O)C1CCCN(c2nnc(-n3c(C)ccc3C)s2)C1 (configuration not stated),–,inactive: -0.237%
CCCCN(CC)C(=O)CSc1nc2n[nH]c(C)c2c(=N)n1-c1ccc(CC)cc1,–,inactive: 1.76%
CCOc1cc(CNc2ccc(O)cc2)ccc1OCc1ccc(Cl)cc1,"inconclusive: 27.3 µM [inhibitor, single point]",–
Cc1cccc(C(=O)Nc2cccc(C(=O)OCc3cc(=O)n4nc(C(C)C)sc4n3)c2)c1,"inconclusive: 19.3 µM [inhibitor, partial curve]",–
COc1ccc(OC)c(CNS(=O)(=O)c2ccc3[nH]c4c(c3c2)CCCCC4)c1,–,inactive: 1.62%
COc1cc(C(=O)Nc2c(C(=O)Nc3ccccc3F)oc3ccccc23)cc(OC)c1OC,"inconclusive: 27.3 µM [inhibitor, partial curve, poor fit]",–
COc1ccc(C2Sc3ccccc3NC3=C2C(=O)c2ccccc23)c(OC)c1OC (configuration not stated),"inconclusive: 34.3 µM [inhibitor, partial curve, poor fit]",–
COc1ccc(-c2noc(CSc3nnc(C)n3-c3ccc(F)cc3)n2)cc1,"inconclusive: 21.7 µM [inhibitor, partial curve, poor fit]",–
COc1cc(OC)c(OC)cc1/C=C/c1nc2cc3ccccc3cc2c(=O)n1-c1ccc(F)cc1F,"inconclusive: 5.44 µM [inhibitor, full curve]",–
CCn1c(=O)cc(OCC(=O)N2CCN(c3ccccc3OC)CC2)c2ccccc21,–,inactive: 5.19%
CC1CCN(C(=O)CSc2nnc(NC(=O)Nc3ccccc3)s2)CC1,"inconclusive: 12.2 µM [inhibitor, partial curve]",–
CCc1ccccc1NC(=O)CSc1ncc(S(=O)(=O)c2ccc(C(C)C)cc2)c(N)n1,–,inactive: 4.79%
COc1ccc(Cn2c(SCC(=O)N(C)Cc3ccccc3)nc3ccccc32)cc1,"inconclusive: 21.7 µM [inhibitor, partial curve]",–
Cc1ccc(CNC(=O)c2nc(S(=O)(=O)Cc3ccc(C)cc3)ncc2Cl)cc1,–,inactive: -3.63%
O=C(Nc1cccc(-c2nc3ccccc3o2)c1)C(F)(F)F,"inconclusive: 10.9 µM [inhibitor, partial curve]",–
CCOC(=O)C1CCN(C(=O)c2ccc3c(=O)n4nc(Nc5ccccc5)sc4nc3c2)CC1,"inconclusive: 21.7 µM [inhibitor, partial curve]",–
CC(=O)Nc1cccc(-c2nnc(SCC(=O)c3cc([N+](=O)[O-])ccc3Cl)o2)c1,"inconclusive: 21.7 µM [inhibitor, partial curve]",–

# One compound at a time (already shown).
# COc1ccc(-c2noc(CSc3nnc(C)n3-c3ccc(F)cc3)n2)cc1 is entered as Potency: inconclusive: 21.7 µM [inhibitor, partial curve, poor fit]
# Cc1cc(C)cc(Nc2cc(C(=O)NCCCN(C)C3CCCCC3)c3ccccc3n2)c1 is entered as Potency: inconclusive: 24.3 µM [inhibitor, partial curve]
